Some of the results follow. Further columns of the screen follow, without active or inactive calls. The list favours compounds with an active or inconclusive main result. The note in brackets gives the kind of curve behind each potency; many fits are weak.
Experiment: qHTS Assay for Lipid Storage Modulators in Drosophila S3 Cells;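 for cell number change: cells counted by Cell Tracker Red CMTPX staining in the red channel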
Conditions: BODIPY lipid droplet fluorescence, 18-24 h; for cell number change: measured here: cell count max response, cells fed with added oleic acid
In short: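 Drosophila S3 cells got compounds at several concentrations plus oleic acid (400 uM solution). Laser-scanning cytometry with 488 nm excitation read lipid droplets at 500-530 nm and cells at 575-640 nm. Percent activity was relative to 20 uM Triacsin C.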

[1] = measured here: cell number channel AC50, cells fed with added oleic acid
[2] = measured here: lipid fluorescence (Fed channel) AC50, cells fed with added oleic acid

Compound | cell number change [%] | AC50 [1] | AC50 [2]
CC(=O)N1CCN(S(=O)(=O)c2cccc(C(=O)Nc3cc(C(F)(F)F)ccc3N3CCOCC3)c2)CC1 | 17.4 | 0.00517 µM [rising, full curve, poor fit] | 0.00651 µM [rising, full curve, poor fit]
CNNC(=O)C(=O)NNS(=O)(=O)c1ccccc1 | -48.9 |  | 
Cc1cc(NC(=O)CCS(=O)(=O)c2nc(-c3ccccc3)cc(C(F)(F)F)n2)no1 | -88.1 | 18.4 µM [falling, single point] | 1.16 µM [rising, partial curve]
CCCC(=O)Nc1ccc(Cl)c(NC(=O)c2ccco2)c1 | 80.8 | 0.731 µM [rising, single point] | 0.58 µM [rising, single point]
CCN(CC(=O)Nc1ccccc1C(F)(F)F)C(=O)C1CCN(C(=O)Nc2ccccc2)CC1 | -57.2 | 11.6 µM [falling, partial curve] | 0.00731 µM [falling, full curve, poor fit]
CCCCCCc1nnc(N)s1 |  |  | 1.84 µM [rising, partial curve]
O=C(Nc1cccc2ncccc12)c1cc2ccccc2o1 | 6.63 |  | 2.59 µM [rising, partial curve]
Cc1cc(C(F)F)n2ncc(C(=O)NCc3ccccc3F)c2n1 | 32.7 | 3.26 µM [rising, full curve, poor fit] | 6.51 µM [rising, partial curve]
c1ccc(Nc2nc(-c3ccncc3)cs2)nc1 | 20.5 |  | 29.1 µM [rising, partial curve, poor fit]
CN(C)CCCNC(=O)/C=C/c1ccc(OCc2c(F)cccc2Cl)cc1 | 2.16 |  | 
N#CC1=C(C2CC2)CC(c2ccccc2)C(C#N)=C1N (stereo unspecified) | 1.99 | 0.461 µM [falling, partial curve, poor fit] | 1.3 µM [rising, single point]
Cc1noc(NS(=O)(=O)c2ccc(NC(=O)CCC3CCCCC3)cc2)c1C | -4.81 |  | 20.6 µM [falling, single point]
Cc1ccc(OCCNC(=O)CCNC(=O)c2ccc(Cl)cc2)cc1 | -9.15 | 0.58 µM [falling, full curve, poor fit] | 0.58 µM [falling, full curve]
CCN(CC)P(=O)(c1ccccc1)c1c(C)nc2ccccn12 (stereo unspecified) | -7.62 |  | 6.51 µM [falling, single point]
O=S(=O)(c1cccc2nsnc12)N1CCN(c2ncccn2)CC1 | 57.4 | 29.1 µM [rising, single point] | 4.11 µM [falling, partial curve]
COc1ccc(-c2cc(C(=O)Nc3ccc(C)cc3)no2)cc1 | -2.49 |  | 0.231 µM [rising, full curve]
O=C(Nc1nc(-c2cccc(Br)c2)cs1)Oc1ccccc1 | 83.8 |  | 
CCOC(=O)c1cnc(N2CCOCC2)[nH]c1=O | 1.98 |  | 
Cc1cc(NC(=O)CSc2nnc3c(C)cc4c(C)ccc(C)c4n23)no1 | 3.91 |  | 
CC(C)CN(C(=O)Cn1ccccc1=O)C1CCS(=O)(=O)C1 (stereo unspecified) | 6.09 |  | 
NC(=O)c1cc(Cl)ccc1OCC(=O)Nc1ccc2c(c1)OCO2 | -10.2 |  | 

One compound at a time, as listed above:
CCN(CC(=O)Nc1ccccc1C(F)(F)F)C(=O)C1CCN(C(=O)Nc2ccccc2)CC1 is listed with cell number change [%]: -57.2; AC50 [1]: 11.6 µM [falling, partial curve]; AC50 [2]: 0.00731 µM [falling, full curve, poor fit]
NC(=O)c1cc(Cl)ccc1OCC(=O)Nc1ccc2c(c1)OCO2 is listed with cell number change [%]: -10.2
CC(C)CN(C(=O)Cn1ccccc1=O)C1CCS(=O)(=O)C1 (stereo unspecified) is listed with cell number change [%]: 6.09
Cc1noc(NS(=O)(=O)c2ccc(NC(=O)CCC3CCCCC3)cc2)c1C is listed with cell number change [%]: -4.81; AC50 [2]: 20.6 µM [falling, single point]

(listing goes on)

Compound | cell number change [%] | AC50 [1] | AC50 [2]
Cc1cccc(-c2oc3ccccc3c2-c2ccc3c(c2)OCO3)c1 | 6.47 |  | 29.1 µM [rising, single point]
COc1cc(C2CC(c3c(C)cc(C)[nH]c3=O)=NN2c2ccccc2F)cc(OC)c1OC (stereo unspecified) | 5.41 |  | 
O=C(Nc1cccc(S(=O)(=O)N2CCOCC2)c1)c1cn(-c2ccccc2)nc1-c1ccccc1 |  | 2.06 µM [rising, partial curve] | 
Cc1nn(-c2ccccc2)c2sc(C(=O)C(C#N)c3ccccn3)cc12 (stereo unspecified) |  | 4.61 µM [rising, single point] | 
COc1ccc(CC(=O)Nc2nc(-c3cccnc3)cs2)cc1 |  | 6.51 µM [rising, single point] | 0.326 µM [rising, partial curve, poor fit]
O=C(O)c1ccc(N/N=C/c2ccc(-c3cccc(Cl)c3)o2)cc1 |  |  | 0.461 µM [rising, full curve]
CCOc1ccc2nc(SCc3ccc(OC)cc3)sc2c1 | 16.1 |  | 9.2 µM [rising, partial curve]
CCOC(=O)N1CCc2c(sc(NC(=O)CCS(=O)(=O)c3ccccc3)c2C(N)=O)C1 | -24.6 |  | 
Cc1sc(NC(=O)C2CCCCC2)c(C#N)c1-c1ccccc1 | 7.13 |  | 
COc1ccc(S(=O)(=O)N2CCOC23CCN(S(=O)(=O)c2ccc(Cl)cc2)CC3)cc1 |  |  | 0.103 µM [falling, full curve, poor fit]
C(=N\Nc1nc2ccccc2[nH]1)/c1cccc2cccnc12 | -41.8 | 23.1 µM [falling, partial curve] | 16.4 µM [falling, partial curve]
CCC(c1nnc(SCC(=O)Nc2cccnc2Cl)n1-c1ccccc1)N(C)C (stereo unspecified) | 22.2 |  | 
Cc1ccc(N2CCN(S(=O)(=O)N3CCCCC3)CC2)cc1Cl | 19 |  | 29.1 µM [rising, single point]
CCOC(=O)c1c(CN2CCOCC2)oc2ccc(OC(C)=O)cc12 | 0.739 |  | 0.00517 µM [rising, full curve, poor fit]
CCN1CCN(CCCNC(=O)CCC(=O)N2CC(C)Oc3ccc(C)cc32)CC1 (stereo unspecified) | 10.7 |  | 6.51 µM [rising, single point]
Cc1sc2ncn(CC(=O)NCC(=O)N(C)C3CCCCC3)c(=O)c2c1C | -12.6 |  | 0.116 µM [falling, full curve, poor fit]
COCCNc1nc(-c2ccc(OC)cc2)c(-c2ccc(OC)cc2)s1 | -67.5 | 32.6 µM [falling, single point] | 
CCOc1ccccc1NC(=O)CSc1nc(=O)n(CCN2CCOCC2)c2c1CCCC2 | 5.49 | 0.146 µM [falling, full curve, poor fit] | 0.164 µM [falling, full curve, poor fit]
COc1ccc(S(=O)(=O)N(CC(=O)NCc2ccncc2)c2ccc(C)cc2)cc1OC | -11.8 |  | 1.26 µM [falling, full curve, poor fit]
O=C(NCCN1CCN(c2ccccc2)CC1)C1(S(=O)(=O)c2ccc(Cl)cc2)CC1 | 8.9 |  | 29.1 µM [rising, single point]
COC(=O)CCN(C(=O)C1C2CC3CC(C2)CC1C3)c1ccccn1 (stereo unspecified) | -8.8 |  | 0.517 µM [falling, single point]

Compound | cell number change [%] | AC50 [1] | AC50 [2]
COc1ccc(-n2cnc3scc(-c4ccccc4)c3c2=O)cc1 | -5.29 |  | 
CC1Cc2cc(/C(O)=C3/C(=O)C(=O)N(CCCn4ccnc4)C3c3ccco3)ccc2O1 (stereo unspecified) | 2.1 |  | 20.6 µM [falling, single point]
O=C(CCCc1ccccc1)NCc1ccc(Cl)cc1 | 10.6 |  | 
COc1ccc(C(=O)OC(C)C(=O)NCC2CCCCC2)cc1S(=O)(=O)N1CCOCC1 (stereo unspecified) | 16.4 |  | 
Cc1cc(C)n(C(C)Sc2ccccc2)n1 (stereo unspecified) | 23.2 |  | 20.6 µM [rising, partial curve, poor fit]
Cc1onc(-c2ccccc2)c1C(=O)Nc1nnc(C(C)C)s1 | -12.9 |  | 29.1 µM [rising, single point]
O=C(CCc1ccccc1)NC(=S)Nc1ccccc1Br | -35.2 |  | 
Cc1nn(C)c(C(=O)N2CCN(C(=O)c3ccco3)CC2)c1Br | -18.6 |  | 16.4 µM [falling, partial curve, poor fit]
CCCCn1c(=NC(=O)c2cccnc2)c(C#N)cc2c(=O)n3cccc(C)c3nc21 | 14.6 |  | 0.411 µM [rising, full curve]
CCc1cc(C(=O)NNC(=O)c2csc(N3CCOCC3)n2)sc1C | 1.2 |  | 
COc1ccc(C(CNc2ccc(S(=O)(=O)N3CCN(C)CC3)cc2[N+](=O)[O-])N(C)C)cc1 (stereo unspecified) | 100 | 20.6 µM [rising, single point] | 
COc1ccc(NC(=O)CSc2n[nH]c(N)n2)c([N+](=O)[O-])c1 | 30.2 | 1.3 µM [rising, full curve, poor fit] | 
CN(CCC(=O)Nc1ccc2c(c1)OCO2)Cc1ccccc1 | -2.77 |  | 0.259 µM [falling, partial curve, poor fit]
O=C(NCCCN1CCOCC1)c1ccc(S(=O)(=O)Nc2cccc(C(F)(F)F)c2)cc1 | 45.4 | 23.1 µM [rising, single point] | 
Cc1ccc(-c2nc(-c3ccccn3)no2)cc1[N+](=O)[O-] | 18 |  | 
CCCc1nc2ccccc2n1CC(O)COc1ccc(NC(C)=O)cc1 (stereo unspecified) | -33.9 | 20.6 µM [falling, single point] | 13 µM [falling, partial curve]
O=C(COc1ccccc1[N+](=O)[O-])N/N=C/c1ccc[nH]1 | 16.7 |  | 29.1 µM [rising, single point]
Nc1nc(Cl)cc(Nc2ccccc2Cl)n1 | 8.8 |  | 18.4 µM [rising, single point]
CC(=O)N1CCN(c2ccc(NC(=O)c3ccc4c(c3)OCCO4)cc2)CC1 | 26.8 |  | 5.8 µM [rising, single point]
CC1(C)CC(=O)/C(=C(/O)Cc2ccccc2)C(=NCCc2ccccc2)C1 | 9.84 |  | 2.59 µM [rising, partial curve, poor fit]
CCOC(=O)CCNCC1COc2ccccc2O1 (stereo unspecified) | -49.3 | 18.4 µM [falling, partial curve, poor fit] | 25.9 µM [falling, partial curve]

Reference: PubChem BioAssay AID2685 (National Center for Advancing Translational Sciences (NCATS), 2010)
